According to patent publication US11253536B2, “Methods for directed folding assembly or dimerization of proteins by templated assembly reactions” (TriBiotica LLC, priority 2016, dated 2022):
For at least one compound, name, drawing or mass did not settle the structure.

System: Gaussia N-terminal-FKBP-F36V-C22S fusion and FRB-C61S-C-terminal Gaussia fusion
Assay: Gaussia luciferase split-protein assay, heterodimerization of FKBP-F36V-C22S and FRB-C61S fusions
Format: biochemical
Details: 0.15 μM rapamycin; protein fragments 0.3 μM; FKBP-F36V-C22S with FRB C61S; compared with Panel 3; FIG. 29 Panel 4, 4 hours

CO[C@H]1C[C@@H]2CC[C@@H](C)[C@@](O)(O2)C(=O)C(=O)N2CCCC[C@H]2C(=O)O[C@H]([C@H](C)C[C@@H]2CC[C@@H](O)[C@H](OC)C2)CC(=O)[C@H](C)/C=C(\C)[C@@H](O)[C@@H](OC)C(=O)[C@H](C)C[C@H](C)/C=C/C=C/C=C/1C [rapamycin]
luminescence response of co-incubated split-protein fusions in the presence of heterodimerizer: further promoted
